Source: doi:10.1371/journal.pone.0140310, primary screening data, rounded.

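Human melanoma cells were exposed to a pair of drugs for 72 h in 1,536-well plates and read by automated microscopy after fixing and staining. Each value is the count of nuclei relative to DMSO-treated wells, in %, so that 100 equals the control. Every drug was used at one fixed concentration, the higher of two screened. The file gives one value for each pair and line, without errors, so small differences may be noise.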
An unselected part of the screen is shown.

Compounds and concentrations:
SU6656 (2 µM): CN(C)S(=O)(=O)c1ccc2c(c1)/C(=C/c1cc3c([nH]1)CCCC3)C(=O)N2
OSU-03012 (5 µM): NCC(=O)Nc1ccc(-n2nc(C(F)(F)F)cc2-c2ccc3c(ccc4ccccc43)c2)cc1
everolimus (0.1 µM): CO[C@H]1C[C@@H]2CC[C@@H](C)[C@@](O)(O2)C(=O)C(=O)N2CCCC[C@H]2C(=O)O[C@H]([C@H](C)C[C@@H]2CC[C@@H](OCCO)[C@H](OC)C2)CC(=O)[C@H](C)/C=C(\C)[C@@H](O)[C@@H](OC)C(=O)[C@H](C)C[C@H](C)/C=C/C=C/C=C/1C
stibogluconate (10 µM): O=C(O)[C@@H]1[O][Sb](=[O])([O][Sb]2(=[O])[O][C@H]([C@H](O)CO)[C@H](O)[C@H](C(=O)O)[O]2)[O][C@H]([C@H](O)CO)[C@@H]1O (some centres undefined)
TCS401 (8.33 µM): O=C(O)C(=O)Nc1sc2c(c1C(=O)O)CCNC2
lestaurtinib (0.02 µM): C[C@]12O[C@H](C[C@]1(O)CO)n1c3ccccc3c3c4c(c5c6ccccc6n2c5c31)CNC4=O
GW0742 (10 µM): Cc1cc(SCc2sc(-c3ccc(C(F)(F)F)c(F)c3)nc2C)ccc1OCC(=O)O
FH535 (5 µM): Cc1cc([N+](=O)[O-])ccc1NS(=O)(=O)c1cc(Cl)ccc1Cl
crizotinib (1 µM): C[C@@H](Oc1cc(-c2cnn(C3CCNCC3)c2)cnc1N)c1c(Cl)ccc(F)c1Cl
tipifarnib (0.05 µM): Cn1cncc1[C@@](N)(c1ccc(Cl)cc1)c1ccc2c(c1)c(-c1cccc(Cl)c1)cc(=O)n2C

- crizotinib + FH535 : COLO 829: 69.2; C32: 81.9; COLO 800: 78.2; WM3619: 81.9; COLO 792: 77.6; WM451Lu: 81.5
- crizotinib + SU6656 : COLO 829: 58.0; C32: 76.7; COLO 800: 46.5; WM3619: 81.9; COLO 792: 57.0; WM451Lu: 73.6
- lestaurtinib + OSU-03012 : COLO 829: 79.1; C32: 115; COLO 800: 54.9; WM3619: 107; COLO 792: 81.2; WM451Lu: 110
- stibogluconate + lestaurtinib : COLO 829: 92.3; C32: 86.3; COLO 800: 61.0; WM3619: 97.1; COLO 792: 51.7; WM451Lu: 93.7
- everolimus + GW0742 : COLO 829: 96.3; C32: 84.1; COLO 800: 71.5; WM3619: 80.0; COLO 792: 61.6; WM451Lu: 80.4
- TCS401 + stibogluconate : COLO 829: 93.9; C32: 115; COLO 800: 89.2; WM3619: 116; COLO 792: 87.5; WM451Lu: 92.9
- stibogluconate + tipifarnib : COLO 829: 83.6; C32: 83.2; COLO 800: 70.7; WM3619: 110; COLO 792: 91.0; WM451Lu: 73.2
- GW0742 + crizotinib : COLO 829: 90.1; C32: 96.9; COLO 800: 101; WM3619: 101; COLO 792: 99.6; WM451Lu: 81.9
- SU6656 + FH535 : COLO 829: 89.9; C32: 91.7; COLO 800: 71.8; WM3619: 66.3; COLO 792: 57.2; WM451Lu: 55.1
- everolimus + crizotinib : COLO 829: 74.6; C32: 85.6; COLO 800: 87.4; WM3619: 78.6; COLO 792: 65.9; WM451Lu: 70.8
- FH535 + lestaurtinib : COLO 829: 81.5; C32: 81.4; COLO 800: 51.1; WM3619: 82.3; COLO 792: 49.1; WM451Lu: 73.3
- SU6656 + GW0742 : COLO 829: 85.1; C32: 87.6; COLO 800: 55.2; WM3619: 63.7; COLO 792: 57.5; WM451Lu: 73.4
- everolimus + stibogluconate : COLO 829: 77.9; C32: 83.5; COLO 800: 81.9; WM3619: 82.0; COLO 792: 55.2; WM451Lu: 64.2
- SU6656 + OSU-03012 : COLO 829: 46.1; C32: 82.8; COLO 800: 24.9; WM3619: 65.2; COLO 792: 51.0; WM451Lu: 48.3
- GW0742 + TCS401 : COLO 829: 106; C32: 112; COLO 800: 102; WM3619: 114; COLO 792: 106; WM451Lu: 100
- SU6656 + TCS401 : COLO 829: 64.7; C32: 92.1; COLO 800: 81.9; WM3619: 74.3; COLO 792: 73.4; WM451Lu: 100
- stibogluconate + crizotinib : COLO 829: 103; C32: 91.7; COLO 800: 158; WM3619: 108; COLO 792: 110; WM451Lu: 106
- tipifarnib + TCS401 : COLO 829: 94.9; C32: 85.8; COLO 800: 80.5; WM3619: 88.0; COLO 792: 76.2; WM451Lu: 75.4
- SU6656 + lestaurtinib : COLO 829: 77.5; C32: 70.7; COLO 800: 49.6; WM3619: 69.8; COLO 792: 40.5; WM451Lu: 78.0
- OSU-03012 + stibogluconate : COLO 829: 70.9; C32: 101; COLO 800: 63.8; WM3619: 82.5; COLO 792: 62.4; WM451Lu: 78.6
- lestaurtinib + GW0742 : COLO 829: 101; C32: 89.3; COLO 800: 79.2; WM3619: 76.4; COLO 792: 77.3; WM451Lu: 94.5
- FH535 + everolimus : COLO 829: 66.7; C32: 80.8; COLO 800: 41.8; WM3619: 51.0; COLO 792: 37.1; WM451Lu: 80.8
- OSU-03012 + crizotinib : COLO 829: 77.1; C32: 109; COLO 800: 30.0; WM3619: 28.0; COLO 792: 64.6; WM451Lu: 72.1
- tipifarnib + GW0742 : COLO 829: 94.0; C32: 86.4; COLO 800: 111; WM3619: 74.9; COLO 792: 81.3; WM451Lu: 96.9
- crizotinib + lestaurtinib : COLO 829: 94.7; C32: 94.8; COLO 800: 69.1; WM3619: 76.9; COLO 792: 71.4; WM451Lu: 89.5
- OSU-03012 + FH535 : COLO 829: 71.6; C32: 93.8; COLO 800: 60.8; WM3619: 4.2; COLO 792: 48.7; WM451Lu: 84.2
- lestaurtinib + everolimus : COLO 829: 98.9; C32: 93.1; COLO 800: 53.1; WM3619: 67.5; COLO 792: 38.6; WM451Lu: 72.2
- stibogluconate + SU6656 : COLO 829: 68.6; C32: 55.4; COLO 800: 29.2; WM3619: 86.9; COLO 792: 58.8; WM451Lu: 58.4
- FH535 + tipifarnib : COLO 829: 78.5; C32: 88.8; COLO 800: 72.4; WM3619: 76.3; COLO 792: 73.3; WM451Lu: 75.5
- everolimus + TCS401 : COLO 829: 72.3; C32: 78.8; COLO 800: 91.8; WM3619: 65.9; COLO 792: 66.0; WM451Lu: 62.3
- TCS401 + crizotinib : COLO 829: 72.1; C32: 102; COLO 800: 128; WM3619: 73.1; COLO 792: 107; WM451Lu: 79.1
- TCS401 + OSU-03012 : COLO 829: 89.0; C32: 92.0; COLO 800: 77.8; WM3619: 48.5; COLO 792: 70.4; WM451Lu: 89.5
- everolimus + SU6656 : COLO 829: 76.0; C32: 86.8; COLO 800: 64.2; WM3619: 87.7; COLO 792: 44.0; WM451Lu: 76.6
- tipifarnib + lestaurtinib : COLO 829: 65.8; C32: 80.3; COLO 800: 50.7; WM3619: 56.4; COLO 792: 54.4; WM451Lu: 58.2
- GW0742 + stibogluconate : COLO 829: 107; C32: 112; COLO 800: 96.6; WM3619: 113; COLO 792: 118; WM451Lu: 93.7
- FH535 + GW0742 : COLO 829: 84.5; C32: 101; COLO 800: 119; WM3619: 124; COLO 792: 99.4; WM451Lu: 102
- lestaurtinib + TCS401 : COLO 829: 95.2; C32: 105; COLO 800: 128; WM3619: 79.1; COLO 792: 62.1; WM451Lu: 93.6
- tipifarnib + crizotinib : COLO 829: 85.0; C32: 82.9; COLO 800: 62.0; WM3619: 61.3; COLO 792: 93.4; WM451Lu: 45.2

The first 5 entries again:

Combination	COLO 829	C32	COLO 800	WM3619	COLO 792	WM451Lu
crizotinib + FH535	69.2	81.9	78.2	81.9	77.6	81.5
crizotinib + SU6656	58.0	76.7	46.5	81.9	57.0	73.6
lestaurtinib + OSU-03012	79.1	115	54.9	107	81.2	110
stibogluconate + lestaurtinib	92.3	86.3	61.0	97.1	51.7	93.7
everolimus + GW0742	96.3	84.1	71.5	80.0	61.6	80.4